PubChem BioAssay AID1259254 – NCATS – 2017
Shown is a random part of about 59,000 reagents. About 1,550 of all reagents (2.6%) were called active. 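G2 share is only a proxy for re-replication; each gene was hit by three separate siRNAs, and active genes were retested.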 The raw values are shown without normalisation. Entries without a mark were called inactive. The numbers tell different reagents against one gene apart. Reagent sequences are not shown. Not given: the amount of reagent.

- Aim: 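Gene knock-downs that lead to re-replication, shown by excess G2 DNA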 (primary screen)
- Cells: human HCT116 colorectal cancer cells
- Reagents: single siRNA against human genes
- Duration: 3 days
- Detection: 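Nuclei stained with Hoechst and imaged; cell-cycle phase assigned by DNA content; G2 share scaled per plate, non-targeting siRNA 0%, GMNN siRNA 100%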
- Scale: G2 robust z-score and G2 cells, % of GMNN control: higher = more G2 cells, more excess DNA replication; raw share of cells in G2: higher = larger share of cells with G2 DNA content
- Hit rule: 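Active siRNAs have a G2 robust z of 5 or more median absolute deviations over the median, which in these data means about 38% or higher of GMNN control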

target gene | reagent | G2 robust z-score | G2 cells, % of GMNN control | raw share of cells in G2 (%)
LGALS4 | 1 | -0.401 | 0.149 | 3.41
LGALS4 | 2 | 0.878 | 9.15 | 8.86
LGALS4 | 3 | 1.69 | 14.9 | 10.1
SRP9P1 | 1 | -0.00631 | 2.92 | 3.65
SRP9P1 | 2 | -0.699 | -1.95 | 2.48
SRP9P1 | 3 | -0.535 | -0.796 | 2.88
LRRK2 | 1 | -1.05 | -4.43 | 4.21
LRRK2 | 2 | 1.44 | 13.1 | 9.95
LRRK2 | 3 | 1.51 | 13.6 | 8.03
CGREF1 | 1 | 0.419 | 5.91 | 5.49
CGREF1 | 2 | 1.43 | 13.1 | 11.8
CGREF1 | 3 | -0.197 | 1.58 | 4
RPUSD1 | 1 | -1.32 | -6.34 | 2.25
RPUSD1 | 2 | -0.0482 | 2.63 | 5.47
RPUSD1 | 3 | -0.608 | -1.31 | 5.06
FAM234B | 1 | -0.297 | 0.877 | 4.69
FAM234B | 2 | -0.21 | 1.49 | 5.17
FAM234B | 3 | 1.99 | 17 | 8.4
DNAJB6 | 1 | -0.165 | 1.81 | 4.13
DNAJB6 | 2 | 0.942 | 9.59 | 10.3
DNAJB6 | 3 | -0.705 | -2 | 2.5
PARVB | 1 | 2.35 | 19.5 | 15
PARVB | 2 | 0.508 | 6.54 | 6.36
PARVB | 3 | -0.222 | 1.41 | 4.45
CXCL6 | 1 | 1.78 | 15.5 | 10.9
CXCL6 | 2 | 1.92 | 16.5 | 10.2
CXCL6 | 3 | -0.115 | 2.16 | 4.67
F5 | 1 | -0.671 | -1.76 | 4.95
F5 | 2 | 0.0367 | 3.23 | 6.05
F5 | 3 | 4.77 | 36.5 | 17.5
SAP30L | 1 | 1.93 | 16.5 | 11.3
SAP30L | 2 | -1.16 | -5.19 | 2.03
SAP30L | 3 | -1.57 | -8.1 | 0.162
TJP2 | 1 | -0.751 | -2.32 | 2.76
TJP2 | 2 | -0.687 | -1.87 | 5.16
TJP2 | 3 | -0.29 | 0.929 | 3.73
CAB39 | 1 | 1.55 | 13.9 | 7.69
CAB39 | 2 | 2.23 | 18.7 | 14.3
CAB39 | 3 | -0.414 | 0.0519 | 3.65
PPP2R1B | 1 | -0.496 | -0.525 | 4.62
PPP2R1B | 2 | 0.602 | 7.2 | 6.47
PPP2R1B | 3 | -0.613 | -1.35 | 3.09
HSD17B2 | 1 | -1.25 | -5.82 | 3.47
HSD17B2 | 2 | 0.0938 | 3.63 | 5.53
HSD17B2 | 3 | 0.236 | 4.63 | 6.73
BYSL | 1 | 2.05 | 17.4 | 13.5
BYSL | 2 | 0.119 | 3.81 | 5.48
BYSL | 3 | 0.467 | 6.26 | 5.97
TBC1D10C | 1 | -0.0648 | 2.51 | 4.85
TBC1D10C | 2 | 0.236 | 4.63 | 5.28
TBC1D10C | 3 | 1.79 | 15.6 | 10.5
THAP10 | 1 | 0.419 | 5.92 | 6.68
THAP10 | 2 | -0.769 | -2.44 | 3.29
THAP10 | 3 | 1.12 | 10.8 | 6.46

Look-ups from the list:
FAM234B #2, G2 cells, % of GMNN control = 1.49
LRRK2 #1, raw share of cells in G2 (%): 4.21
PPP2R1B #1, G2 robust z-score: -0.496
Under “raw share of cells in G2 (%)”, CAB39 #1 has 7.69
F5 #1, G2 cells, % of GMNN control: -1.76
For “G2 cells, % of GMNN control”, HSD17B2 #3 is entered as 4.63

Continued.
target gene | reagent | G2 robust z-score | G2 cells, % of GMNN control | raw share of cells in G2 (%)
SOBP | 1 | -1.16 | -5.18 | 2.54
SOBP | 2 | 0.0791 | 3.52 | 5.6
SOBP | 3 | 1.32 | 12.3 | 7.05
KHSRP | 1 | 1.39 | 12.7 | 9.26
KHSRP | 2 | -1.14 | -5.03 | 3.5
KHSRP | 3 | 0.151 | 4.03 | 6.37
FOXP2 | 1 | 1.75 | 15.3 | 12.8
FOXP2 | 2 | -0.529 | -0.754 | 4.64
FOXP2 | 3 | 2.72 | 22.1 | 12.8
HMGCS2 | 1 | 0.801 | 8.6 | 8.96
HMGCS2 | 2 | -1.41 | -6.95 | 1.65
HMGCS2 | 3 | 2.42 | 20 | 12.3
RSPRY1 | 1 | 0.847 | 8.92 | 8.8
RSPRY1 | 2 | -0.397 | 0.172 | 4.55
RSPRY1 | 3 | 6.64 (active) | 49.7 | 28.7
LIMCH1 | 1 | -0.726 | -2.14 | 3.44
LIMCH1 | 2 | -0.306 | 0.812 | 6.69
LIMCH1 | 3 | -0.592 | -1.2 | 3.45
VPS11 | 1 | 2.8 | 22.7 | 10.8
VPS11 | 2 | 0.211 | 4.46 | 7.92
VPS11 | 3 | 0.863 | 9.04 | 6.47
VGLL1 | 1 | -0.185 | 1.66 | 4.2
VGLL1 | 2 | 0.164 | 4.12 | 6.01
VGLL1 | 3 | -0.241 | 1.27 | 3.61
ABCC12 | 1 | -0.805 | -2.7 | 3.81
ABCC12 | 2 | 0.141 | 3.96 | 5.98
ABCC12 | 3 | -0.659 | -1.67 | 4.89
MYBPC3 | 1 | -1.16 | -5.21 | 3.35
MYBPC3 | 2 | -0.339 | 0.582 | 5.7
MYBPC3 | 3 | 0.111 | 3.75 | 4.43
OSGIN1 | 1 | -0.651 | -1.61 | 3.46
OSGIN1 | 2 | -0.202 | 1.55 | 6.86
OSGIN1 | 3 | 0.778 | 8.44 | 6.99
